From US20080214521A1, “Sensitization of Drug-Resistant Lung Caners to Protein Kinase Inhibitors” (priority 2005, published 2008)

Tested on: NSCLC cell lines
Settings: cell lines protected against apoptosis induced by cytotoxic drugs; 48 hours

Row | SMILES | sensitivity to apoptosis induced by PKC-specific inhibitors (sub-G1)
1 | CO[C@@H]1[C@H](N(C)C(=O)c2ccccc2)C[C@H]2O[C@]1(C)n1c3ccccc3c3c4c(c5c6ccccc6n2c5c31)C(=O)NC4 [PKC412, N-[(9S,10R,11R,13R)-2,3,10,11,12,13-hexahydro-10-methoxy-9-methyl-1-oxo-9,13-epoxy-1H,9H-diindolo[1,2,3-gh:3′,2′,1′-Im]pyrrolo[3,4j][1,7]benzodiazonin-11-yl]-N-methylbenzamide] | reduced sensitivity
2 | CN[C@@H]1C[C@H]2O[C@@](C)([C@@H]1OC)n1c3ccccc3c3c4c(c5c6ccccc6n2c5c31)C(=O)NC4 [staurosporine] | reduced sensitivity
